Measured values from PubChem BioAssay AID2417 (National Center for Advancing Translational Sciences (NCATS), 2010).
Hit rate of the full screen: of about 140,000 compounds, about 4,300 (3.1%) were called active. The inconclusive results got no clear call from the source; some entries with a clear call stand among them for comparison.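 The calls were made as follows: active = readout at or below -70, meaning at least 70% loss of cells showing the perinucleolar compartment, a nuclear body marking cancer cells; inconclusive = readout between -30 and a set limit; inactive = the rest.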

experiment: High Content Assay for Compounds that inhibit the Assembly of the Perinucleolar Compartment; conditions: PC3M PTB-GFP, PNC prevalence imaging, 16 h; at 10 µM; hits give low values;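 also: plate controls were DMSO wells for no effect and camptothecin positive control wells for full effect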
Summary of the method: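 PC3M cells stably expressing PTB-GFP, 750–1000 cells/well, treated 16 h at 37 °C with compound (23 nl of library stock), in duplicate. After paraformaldehyde fixation and Hoechst stain, imaged at 20x; PNC prevalence scored by image analysis.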

Row | Structure (SMILES) | activity change (PNC), negative = inhibition
1 | CCOC(=O)c1[nH]c2ccc(Br)cc2c1NC(=O)CCN1CCCC(C)C1 (stereo unspecified) | inactive: 23.2%
2 | Cc1ccc(NC(=O)/C(=C/c2cccs2)NC(=O)c2ccco2)cc1 | inconclusive: -55.4%
3 | COC(=O)c1ccc(C2C(Oc3ccc(OC)cc3)C(=O)N2CCc2ccc(OC)c(OC)c2)cc1 (stereo unspecified) | inconclusive: -52.9%
4 | Cc1nc(C)n(CC(O)COc2ccc3c(c2)CCC3)n1 (stereo unspecified) | inconclusive: -36%
5 | Cc1nn(-c2cccc(Cl)c2)c2c1C(c1cccnc1)C(C#N)=C(N)O2 (stereo unspecified) | inactive: -3.84%
6 | Cc1onc(-c2ccccc2)c1C(=O)Nc1ccc2c(c1)OCCO2 | inconclusive: -40.8%
7 | O=C(c1cc(-c2cccc(O)c2)on1)N1CCOCC1 | active: -84.7%
8 | CCc1cccc2c(C(=O)COC(=O)c3cccc(S(=O)(=O)N(C)C4CCCCC4)c3)c[nH]c12 | inconclusive: -44.6%
9 | Cc1ccc(S(=O)(=O)c2nc(S(C)(=O)=O)sc2NCC2CCCO2)cc1 (stereo unspecified) | inactive: 30.6%
10 | c1ccc(N2CCN(c3nc4ccccc4n4cnnc34)CC2)cc1 | inactive: 22.8%
11 | O=C(O)CCCC(=O)Nc1ccc(N2CCCC2)cc1 | inactive: 7.84%
12 | COc1ccc(-c2cnn(-c3ccccc3)c2N)cc1OC | inconclusive: -69.3%
13 | O=c1c2ccccc2nc(SCc2cn3ccsc3n2)n1-c1ccc(F)cc1 | inconclusive: -60.6%
14 | Cc1ccc(-c2nnc3n2N=C(c2ccccc2Br)CS3)cc1 | inactive: -9.39%
15 | CCOc1cc(C2NC(=O)NC(C)=C2C(C)=O)cc(Cl)c1OCC(=O)O (stereo unspecified) | inactive: 10.6%
16 | COc1ccc(CCNc2nc(C)nc3c2oc2ccccc23)cc1OC | inconclusive: -48%
17 | Cn1c(=O)c2cn3ncccc3c2n(C)c1=O | inconclusive: -37.2%
18 | Cc1ccc(N=Cc2ccc(O)cc2O)cc1F | inactive: -27.3%
19 | COc1cc(NC2c3ccccc3C(=O)N2c2ccc(C)cn2)cc(OC)c1OC (stereo unspecified) | inconclusive: -33.7%
20 | Cc1cc(Nc2ccc3ccccc3c2)n2ncnc2n1 | inconclusive: -30%
21 | COc1cc(NC(=O)CN(c2ccc(C)cc2)S(=O)(=O)c2c(C)n[nH]c2C)cc(OC)c1 | inconclusive: -50.2%
22 | O=C(Nc1cccc(C(F)(F)F)c1)c1ccccc1NC(=O)C1CCCCC1 | inactive: 61.1%
23 | COc1ccc(NC(=O)c2nnn(Cc3cccc(F)c3)c2N)c(OC)c1 | inconclusive: -30.9%

Row | Structure (SMILES) | activity change (PNC), negative = inhibition
24 | O=C(CCn1cccc1)Nc1cc(F)ccc1F | inconclusive: -55.1%
25 | C=CCn1cc([N+](=O)[O-])nc1C | inconclusive: -42.2%
26 | Cn1c(SCC(=O)NCCN2C(=O)CSC2=O)nnc1-c1ccccc1 | active: -81.7%
27 | CCCCOC(=O)c1ccc(NC(=O)c2cnccn2)cc1 | inconclusive: -38.2%
28 | CCn1cc(C(=O)O)c(=O)c2cc(OC)ccc21 | inconclusive: -42.3%
29 | O=C(CCC1CCCCC1=O)c1ccccc1 (stereo unspecified) | inconclusive: -49%
30 | Cc1nc(SCC(=O)c2ccccc2)c([N+](=O)[O-])[nH]1 | inconclusive: -45.5%
31 | CC(NC(=O)COc1ccccc1)C(=O)NC1=NCCS1 (stereo unspecified) | inconclusive: -65.5%
32 | O=C(Nc1ccccc1C(=O)O)c1ccc(NC(=O)c2ccc(Br)o2)cc1 | inactive: 55.6%
33 | CCOC(=O)CSc1nnc(CNc2ccc(Cl)cc2)n1Cc1ccccc1 | inactive: -24%
34 | COC(=O)CSc1nc(C)c(Oc2ccccc2)c(=O)[nH]1 | inactive: 19.9%
35 | Cc1onc(-c2ccccc2)c1C(=O)Nc1cc(C(F)(F)F)ccc1N1CCOCC1 | inconclusive: -68.9%
36 | O=C(NCc1ccco1)C1CC(=O)N(CCc2ccccc2)C1 (stereo unspecified) | inactive: 39.5%
37 | Cc1cccc[n+]1C1C(c2ccccc2)C(C#N)=C(C(=C=[N-])C#N)NC1(O)C1CC1 (stereo unspecified) | inactive: -10.3%
38 | O=C(Nc1nncs1)c1cccnc1Cl | inconclusive: -56.7%
39 | COc1ccccc1NC(=S)NNC(=O)c1cc(C)nn1C | inconclusive: -31.7%
40 | COC(=O)c1sc2nc(CSc3nc4ccc(C)cc4[nH]3)[nH]c(=O)c2c1C | inactive: 5.14%
41 | COC(=O)c1c(C)n(-c2ccccc2)c2ccc(O)cc12 | inactive: -27.5%
42 | O=C(Nc1cccn(Cc2c(Cl)cccc2Cl)c1=O)c1ccc(Cl)cc1Cl | inconclusive: -45.7%
43 | Cc1ccc(-n2ncc3c(=O)n(CC(=O)NC4CCCC4)cnc32)cc1C | inconclusive: -35.4%
44 | O=C(Nc1ccccc1C(=O)O)c1ccccc1 | inconclusive: -30.6%
45 | O=C(CN1CCN(S(=O)(=O)c2ccc(Br)cc2)CC1)Nc1ccc2c(c1)OCCO2 | inactive: 62%
46 | CNC(=S)N1CCN(C(=O)C2CCCO2)CC1 (stereo unspecified) | inconclusive: -69.1%

Rewritten as a markdown table: entries from further up.

| Row | Structure (SMILES) | activity change (PNC), negative = inhibition |
| --- | --- | --- |
| 10 | c1ccc(N2CCN(c3nc4ccccc4n4cnnc34)CC2)cc1 | inactive: 22.8% |
| 11 | O=C(O)CCCC(=O)Nc1ccc(N2CCCC2)cc1 | inactive: 7.84% |
| 12 | COc1ccc(-c2cnn(-c3ccccc3)c2N)cc1OC | inconclusive: -69.3% |
| 13 | O=c1c2ccccc2nc(SCc2cn3ccsc3n2)n1-c1ccc(F)cc1 | inconclusive: -60.6% |
| 14 | Cc1ccc(-c2nnc3n2N=C(c2ccccc2Br)CS3)cc1 | inactive: -9.39% |
| 15 | CCOc1cc(C2NC(=O)NC(C)=C2C(C)=O)cc(Cl)c1OCC(=O)O (stereo unspecified) | inactive: 10.6% |
| 16 | COc1ccc(CCNc2nc(C)nc3c2oc2ccccc23)cc1OC | inconclusive: -48% |
| 17 | Cn1c(=O)c2cn3ncccc3c2n(C)c1=O | inconclusive: -37.2% |
